Test [1] has as its target T1, perilipin (human (endogenous in human preadipose cells)) (UniProt O60240).
T1 sequence: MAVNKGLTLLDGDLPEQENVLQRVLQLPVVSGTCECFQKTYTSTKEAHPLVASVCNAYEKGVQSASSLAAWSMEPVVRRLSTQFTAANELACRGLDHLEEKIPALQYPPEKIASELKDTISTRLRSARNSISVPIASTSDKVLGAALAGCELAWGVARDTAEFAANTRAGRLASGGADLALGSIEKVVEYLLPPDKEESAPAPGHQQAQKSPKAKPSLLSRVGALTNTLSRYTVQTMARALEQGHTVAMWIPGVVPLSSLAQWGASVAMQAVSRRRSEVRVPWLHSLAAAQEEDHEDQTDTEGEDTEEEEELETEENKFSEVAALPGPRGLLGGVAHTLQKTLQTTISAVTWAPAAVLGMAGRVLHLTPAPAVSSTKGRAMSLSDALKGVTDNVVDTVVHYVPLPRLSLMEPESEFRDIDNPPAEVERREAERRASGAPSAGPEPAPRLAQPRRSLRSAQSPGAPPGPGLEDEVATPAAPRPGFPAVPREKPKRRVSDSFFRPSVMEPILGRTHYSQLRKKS
The test can be described thus: affinity purification with mass spectrometry; IPs from density gradient fraction LD2 of AIM-stimulated human preadipocytes with mab Peri112.17 or mab VIM 3B4; SDS-PAGE, silver staining, complete gel lanes cut, tryptic digests, MS.

Protein sequences, listed by entry. Tags and fused reporters are not part of them.
UniProt P08670: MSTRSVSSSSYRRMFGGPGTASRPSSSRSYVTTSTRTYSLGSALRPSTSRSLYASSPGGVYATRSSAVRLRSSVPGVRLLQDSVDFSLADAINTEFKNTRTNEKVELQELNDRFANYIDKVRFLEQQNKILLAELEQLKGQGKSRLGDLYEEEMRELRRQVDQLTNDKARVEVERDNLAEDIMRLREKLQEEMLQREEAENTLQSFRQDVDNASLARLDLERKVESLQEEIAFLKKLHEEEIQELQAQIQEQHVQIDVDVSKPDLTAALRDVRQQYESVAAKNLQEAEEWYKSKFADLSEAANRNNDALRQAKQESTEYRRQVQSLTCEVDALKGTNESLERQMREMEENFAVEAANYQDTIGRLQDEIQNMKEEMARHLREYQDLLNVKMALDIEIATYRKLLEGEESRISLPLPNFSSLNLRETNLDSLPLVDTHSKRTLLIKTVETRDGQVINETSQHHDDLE
UniProt Q7KZF4: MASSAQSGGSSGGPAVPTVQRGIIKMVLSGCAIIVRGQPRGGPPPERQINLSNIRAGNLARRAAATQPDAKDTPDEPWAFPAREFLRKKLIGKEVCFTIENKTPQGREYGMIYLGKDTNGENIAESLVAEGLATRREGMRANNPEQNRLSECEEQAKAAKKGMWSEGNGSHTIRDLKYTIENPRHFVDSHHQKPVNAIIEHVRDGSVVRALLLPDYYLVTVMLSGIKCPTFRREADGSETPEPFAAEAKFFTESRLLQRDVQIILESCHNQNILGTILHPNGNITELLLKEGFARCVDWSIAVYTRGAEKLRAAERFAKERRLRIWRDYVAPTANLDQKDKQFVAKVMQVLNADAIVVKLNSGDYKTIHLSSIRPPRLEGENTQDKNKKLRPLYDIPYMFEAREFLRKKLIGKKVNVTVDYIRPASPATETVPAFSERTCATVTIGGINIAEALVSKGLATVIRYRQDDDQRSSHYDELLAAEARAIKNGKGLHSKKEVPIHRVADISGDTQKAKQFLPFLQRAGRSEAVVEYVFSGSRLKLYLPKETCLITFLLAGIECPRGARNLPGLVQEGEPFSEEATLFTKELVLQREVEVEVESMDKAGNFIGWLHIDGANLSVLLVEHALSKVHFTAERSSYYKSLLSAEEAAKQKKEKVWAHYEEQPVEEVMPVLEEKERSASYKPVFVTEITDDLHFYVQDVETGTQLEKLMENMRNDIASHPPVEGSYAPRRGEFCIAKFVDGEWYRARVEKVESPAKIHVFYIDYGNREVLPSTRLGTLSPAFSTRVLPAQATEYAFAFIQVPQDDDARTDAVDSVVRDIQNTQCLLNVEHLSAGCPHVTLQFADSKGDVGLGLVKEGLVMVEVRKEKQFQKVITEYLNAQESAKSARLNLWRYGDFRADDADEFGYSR
UniProt Q9NP72: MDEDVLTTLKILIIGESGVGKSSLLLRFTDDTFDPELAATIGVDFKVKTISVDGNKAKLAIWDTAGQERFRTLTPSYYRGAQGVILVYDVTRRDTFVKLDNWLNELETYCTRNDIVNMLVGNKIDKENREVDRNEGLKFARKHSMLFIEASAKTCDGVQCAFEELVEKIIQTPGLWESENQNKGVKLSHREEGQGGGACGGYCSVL

Test [2] addresses vimentin (human (endogenous in human preadipose cells)) (UniProt P08670). The test is described as above.

Results are given in words; binding and its absence hold for the method and conditions named. In cells and extracts the contact can be indirect. These calls come from enrichment with a bait or labelling near it, and not all partners need be listed.

On to “100 kD coactivator protein (from UniProt Q7KZF4 1-910)”, for which the binding entry in test [1] and in test [2] was “binds” in each case.

As for “N-terminal head sequence domain of vimentin (domain or fragment)”, the binding entry in test [1] was “binds”.

For Rab-18 (from UniProt Q9NP72 1-206), the binding entry in test [1] and in test [2] was “binds” each time.

B1: TIP47 (protein, UniProt O60664 1-434)
chain: MSADGAEADGSTQVTVEEPVQQPSVVDRVASMPLISSTCDMVSAAYASTKESYPHIKTVCDAAEKGVRTLTAAAVSGAQPILSKLEPQIASASEYAHRGLDKLEENLPILQQPTEKVLADTKELVSSKVSGAQEMVSSAKDTVATQLSEAVDATRGAVQSGVDKTKSVVTGGVQSVMGSRLGQMVLSGVDTVLGKSEEWADNHLPLTDAELARIATSLDGFDVASVQQQRQEQSYFVRLGSLSERLRQHAYEHSLGKLRATKQRAQEALLQLSQVLSLMETVKQGVDQKLVEGQEKLHQMWLSWNQKQLQGPEKEPPKPEQVESRALTMFRDIAQQLQATCTSLGSSIQGLPTNVKDQVQQARRQVEDLQATFSSIHSFQDLSSSILAQSRERVASAREALDHMVEYVAQNTPVTWLVGPFAPGITEKAPEEKK
For the molecule B1, the binding result in test [2] is recorded as “binds”.

B2: S3-12 (protein, UniProt Q96Q06 1-1371)
chain: MSAPDEGRRDPPKPKGKTLGSFFGSLPGFSSARNLVANAHSSARARPAADPTGAPAAEAAQPQAQVAAHPEQTAPWTEKELQPSEKMVSGAKDLVCSKMSRAKDAVSSGVASVVDVAKGVVQGGLDTTRSALTGTKEVVSSGVTGAMDMAKGAVQGGLDTSKAVLTGTKDTVSTGLTGAVNVAKGTVQAGVDTTKTVLTGTKDTVTTGVMGAVNLAKGTVQTGVETSKAVLTGTKDAVSTGLTGAVNVARGSIQTGVDTSKTVLTGTKDTVCSGVTGAMNVAKGTIQTGVDTSKTVLTGTKDTVCSGVTGAMNVAKGTIQTGVDTSKTVLTGTKDTVCSGVTGAMNVAKGTIQTGVDTTKTVLTGTKNTVCSGVTGAVNLAKEAIQGGLDTTKSMVMGTKDTMSTGLTGAANVAKGAMQTGLNTTQNIATGTKDTVCSGVTGAMNLARGTIQTGVDTTKIVLTGTKDTVCSGVTGAANVAKGAVQGGLDTTKSVLTGTKDAVSTGLTGAVNVAKGTVQTGVDTTKTVLTGTKDTVCSGVTSAVNVAKGAVQGGLDTTKSVVIGTKDTMSTGLTGAANVAKGAVQTGVDTAKTVLTGTKDTVTTGLVGAVNVAKGTVQTGMDTTKTVLTGTKDTIYSGVTSAVNVAKGAVQTGLKTTQNIATGTKNTFGSGVTSAVNVAKGAAQTGVDTAKTVLTGTKDTVTTGLMGAVNVAKGTVQTSVDTTKTVLTGTKDTVCSGVTGAANVAKGAIQGGLDTTKSVLTGTKDAVSTGLTGAVKLAKGTVQTGMDTTKTVLTGTKDAVCSGVTGAANVAKGAVQMGVDTAKTVLTGTKDTVCSGVTGAANVAKGAVQTGLKTTQNIATGTKNTLGSGVTGAAKVAKGAVQGGLDTTKSVLTGTKDAVSTGLTGAVNLAKGTVQTGVDTSKTVLTGTKDTVCSGVTGAVNVAKGTVQTGVDTAKTVLSGAKDAVTTGVTGAVNVAKGTVQTGVDASKAVLMGTKDTVFSGVTGAMSMAKGAVQGGLDTTKTVLTGTKDAVSAGLMGSGNVATGATHTGLSTFQNWLPSTPATSWGGLTSSRTTDNGGEQTALSPQEAPFSGISTPPDVLSVGPEPAWEAAATTKGLATDVATFTQGAAPGREDTGLLATTHGPEEAPRLAMLQNELEGLGDIFHPMNAEEQAQLAASQPGPKVLSAEQGSYFVRLGDLGPSFRQRAFEHAVSHLQHGQFQARDTLAQLQDCFRLIEKAQQAPEGQPRLDQGSGASAEDAAVQEERDAGVLSRVCGLLRQLHTAYSGLVSSLQGLPAELQQPVGRARHSLCELYGIVASAGSVEELPAERLVQSREGVHQAWQGLEQLLEGLQHNPPLSWLVGPFALPAGGQ
On to B2, for which the binding result in test [1] and in test [2] was “binds” throughout.

Source of the values: paper PMC3938729.
